Reference: PubChem BioAssay AID220 (DTP/NCI, 2004)
The list is a part of this screen's results and no random one: it is rich in T/C values a quarter to a half above the control, in often repeated tests (any T/C) and in doses without a T/C. Further doses and runs are listed elsewhere. T/C is the treated group as % of the vehicle group. Schedule codes are those of the source, read here as Q, the interval in days (D) or hours (H), X, the number of doses. Some entries hold several experiments; their values stand side by side, smallest first. Some values lie below zero, which means that the treated tumours became smaller. Marks such as (2×) stand for listed records that agree. Some T/C values carry the count of animals alive at the toxicity check (mostly the fifth day); where none is given, no animal had died by that day. Some entries give survivors of the animals treated and no T/C: the source files T/C as zero there, which appears to mark a toxic dose or a test without result, not a measured value. Counts of survivors are from the toxicity check (mostly the fifth day) where no day follows; animals may have died later.

System: CD8F1 mice, subcutaneous mammary adenocarcinoma, T/C%
Test: NCI In Vivo Anticancer Drug Screen. Data for tumor model Mammary Adenocarcinoma CD8F1 (subcutaneous) in CD8F1
Conditions: higher T/C = larger tumour
How it was run: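 Ratio of treated to vehicle-control outcome, based on either survival or tumor size, in mice bearing transplantable tumors given the test compound.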

[1] = T/C endpoint: median tumor weight change, dose: 125.0 mg/kg/injection, schedule: Q01DX001 (ip), vehicle: saline with Tween-80
[2] = T/C endpoint: median tumor weight change, dose: 250.0 mg/kg/injection, schedule: Q01DX001 (ip), vehicle: saline with Tween-80

## Nc1ccc(C(OC(=O)c2cc3ccccc3c(Cc3c(O)c(C(=O)OC(c4ccc(N)cc4)(c4ccc(N)cc4)c4ccc(N)cc4)cc4ccccc34)c2O)(c2ccc(N)cc2)c2ccc(N)cc2)cc1
T/C endpoint: median tumor weight change, dose: 12.5 mg/kg/injection, schedule: Q01DX001 (ip), vehicle: saline with Tween-80, evaluated on day 31
  T/C: 126 % of control [9 of 10 alive on day 31]
T/C endpoint: median tumor weight change, dose: 25.0 mg/kg/injection, schedule: Q01DX001 (ip), vehicle: saline with Tween-80, evaluated on day 31
  T/C: 135 % of control [9 of 10 alive on day 31]
T/C endpoint: median tumor weight change, dose: 31.25 mg/kg/injection, schedule: Q01DX001 (ip), vehicle: saline with Tween-80, evaluated on day 28
  T/C: 137 % of control
[1]
  survivor count: 1 of 10 on day 28
[2]
  survivor count: 2 of 10 on day 28

## CC(=O)Oc1[nH]c(=O)c2cccc3c2c1CCC3
T/C endpoint: median tumor weight change, dose: 900.0 mg/kg/injection, schedule: Q01DX001 (ip), vehicle: saline with Tween-80, evaluated on day 32
  T/C: 128 % of control
T/C endpoint: median tumor weight change, dose: 3600.0 mg/kg/injection, schedule: Q01DX001 (ip), vehicle: saline with Tween-80
  survivor count: 6 of 10 on day 32

## N[C@@H](Cc1ccc(N(CCCl)CCCl)cc1)C(=O)O
T/C endpoint: median tumor weight (est.), dose: 12.0 mg/kg/injection, schedule: Q07DX005 (ip), vehicle: suspension in saline
  survivor count: 1 of 10 on day 30
T/C endpoint: median tumor weight (est.), dose: 32.0 mg/kg/injection, schedule: Q01DX001 (ip), vehicle: suspension in saline
  survivor count: 3 of 10 on day 30 and 5 of 10 on day 32
T/C endpoint: median tumor weight (est.), dose: 32.0 mg/kg/injection, schedule: Q07DX005 (ip), vehicle: suspension in saline
  survivor count: 1 of 10 on day 32
T/C endpoint: median tumor weight (est.), dose: 64.0 mg/kg/injection, schedule: Q01DX001 (ip), vehicle: suspension in saline
  survivor count: 0 of 10 on day 30 and 1 of 10 on day 32
T/C endpoint: median tumor weight (est.), dose: 128.0 mg/kg/injection, schedule: Q01DX001 (ip), vehicle: suspension in saline
  survivor count: 0 of 10 on day 30 and 0 of 10 on day 32
T/C endpoint: median tumor weight (est.), dose: 256.0 mg/kg/injection, schedule: Q01DX001 (ip), vehicle: suspension in saline
  survivor count: 0 of 10 on day 30 and 0 of 10 on day 32
T/C endpoint: median tumor weight change, dose: 5.3 mg/kg/injection, schedule: Q01DX001 (ip), vehicle: saline, evaluated on day 29
  T/C: 26 % of control
T/C endpoint: median tumor weight change, dose: 5.3 mg/kg/injection, schedule: Q01DX001 (ip), vehicle: saline, evaluated on day 30
  T/C: 39 % of control
T/C endpoint: median tumor weight change, dose: 5.3 mg/kg/injection, schedule: Q01DX001 (ip), vehicle: saline, evaluated on day 33
  T/C: -20 % of control (2×)
T/C endpoint: median tumor weight change, dose: 8.0 mg/kg/injection, schedule: Q01DX001 (ip), vehicle: saline, evaluated on day 29
  T/C: 4 % of control
T/C endpoint: median tumor weight change, dose: 8.0 mg/kg/injection, schedule: Q01DX001 (ip), vehicle: saline, evaluated on day 30
  T/C: 29 % of control
T/C endpoint: median tumor weight change, dose: 8.0 mg/kg/injection, schedule: Q01DX001 (ip), vehicle: saline, evaluated on day 33
  T/C: -51 and -27 % of control
T/C endpoint: median tumor weight change, dose: 8.0 mg/kg/injection, schedule: Q01DX001 (ip), vehicle: saline, evaluated on day 39
  T/C: -22 % of control
T/C endpoint: median tumor weight change, dose: 12.0 mg/kg/injection, schedule: Q01DX001 (ip), vehicle: saline, evaluated on day 29
  T/C: -12 % of control
T/C endpoint: median tumor weight change, dose: 12.0 mg/kg/injection, schedule: Q01DX001 (ip), vehicle: saline, evaluated on day 30
  T/C: -2 % of control
T/C endpoint: median tumor weight change, dose: 12.0 mg/kg/injection, schedule: Q01DX001 (ip), vehicle: saline, evaluated on day 33
  T/C: -68 and -65 % of control
T/C endpoint: median tumor weight change, dose: 12.0 mg/kg/injection, schedule: Q01DX001 (ip), vehicle: saline, evaluated on day 39
  T/C: -5 % of control [9 of 10 alive on day 39]
T/C endpoint: median tumor weight change, dose: 18.0 mg/kg/injection, schedule: Q01DX001 (ip), vehicle: saline, evaluated on day 29
  T/C: -48 % of control
T/C endpoint: median tumor weight change, dose: 18.0 mg/kg/injection, schedule: Q01DX001 (ip), vehicle: saline, evaluated on day 30
  T/C: -36 % of control
T/C endpoint: median tumor weight change, dose: 18.0 mg/kg/injection, schedule: Q01DX001 (ip), vehicle: saline, evaluated on day 33
  T/C: -89 [8 of 10 alive on day 30] and -80 % of control [9 of 10 alive on day 30]
T/C endpoint: median tumor weight change, dose: 18.0 mg/kg/injection, schedule: Q01DX001 (ip), vehicle: saline, evaluated on day 39
  T/C: -27 % of control [9 of 10 alive on day 39]
T/C endpoint: median tumor weight change, dose: 40.0 mg/kg/injection, schedule: Q01DX001 (ip), vehicle: saline
  survivor count: 3 of 10 on day 32
T/C endpoint: median tumor weight change, dose: 80.0 mg/kg/injection, schedule: Q01DX001 (ip), vehicle: saline
  survivor count: 0 of 10 on day 32
T/C endpoint: median tumor weight change, dose: 160.0 mg/kg/injection, schedule: Q01DX001 (ip), vehicle: saline
  survivor count: 0 of 10 on day 32

## CC1c2ccccc2CC(CCN(C)C)c2ccccc21 (configuration not stated)
T/C endpoint: median tumor weight change, dose: 62.5 mg/kg/injection, schedule: Q01DX001 (ip), vehicle: saline with Tween-80
  survivor count: 3 of 10 on day 27
[1]
  survivor count: 0 of 10 on day 27
[2]
  survivor count: 0 of 10 on day 27
T/C endpoint: median tumor weight change, dose: 500.0 mg/kg/injection, schedule: Q01DX001 (ip), vehicle: saline with Tween-80
  survivor count: 0 of 10 on day 27

## CCOC(=O)c1ccc(NC(=O)Nc2nncs2)cc1
T/C endpoint: median tumor weight (est.), dose: 100.0 mg/kg/injection, schedule: Q07DX005 (ip), vehicle: distilled water + Tween-80, evaluated on day 32
  T/C: 125 % of control
T/C endpoint: median tumor weight (est.), dose: 200.0 mg/kg/injection, schedule: Q07DX005 (ip), vehicle: distilled water + Tween-80, evaluated on day 32
  T/C: 135 % of control [9 of 10 alive]

## CC(C)[NH-].CC(C)[NH-].O.O.[Cl][Pt+2][Cl]
T/C endpoint: median tumor weight (est.), dose: 3.12 mg/kg/injection, schedule: Q07DX005 (ip), vehicle: dextrose, evaluated on day 30
  T/C: 145 % of control [9 of 10 alive]

## CNC(=O)OCc1c(COC(=O)NC)c(C)n(-c2ccc(OC)cc2)c1C
T/C endpoint: median tumor weight change, dose: 100.0 mg/kg/injection, schedule: Q01DX001 (ip), vehicle: Klucel (hydroxypropylcellulose) (HPC), evaluated on day 29
  T/C: 125 % of control

## O=c1[nH]cnc2c1ccn2C1OC(CO)C(O)C1O (configuration not stated)
T/C endpoint: median tumor weight change, dose: 6.0 mg/kg/injection, schedule: Q01DX001 (ip), vehicle: saline, evaluated on day 35
  T/C: 137 % of control
T/C endpoint: median tumor weight change, dose: 12.0 mg/kg/injection, schedule: Q01DX001 (ip), vehicle: saline, evaluated on day 35
  T/C: 127 % of control
T/C endpoint: median tumor weight change, dose: 96.0 mg/kg/injection, schedule: Q01DX001 (ip), vehicle: saline
  survivor count: 0 of 10 on day 35

## O=C1CN(Cc2ccc3c(c2)OCO3)NO1
T/C endpoint: median tumor weight change, dose: 31.25 mg/kg/injection, schedule: Q01DX001 (ip), vehicle: saline with Tween-80, evaluated on day 31
  T/C: 142 % of control

## CCCC(=O)Oc1ccc(/C=N/NC(N)=S)nc1
T/C endpoint: median tumor weight (est.), dose: 400.0 mg/kg/injection, schedule: Q07DX005 (ip), vehicle: saline with Tween-80, evaluated on day 30
  T/C: 144 % of control [8 of 10 alive on day 30]

## C=CS(C=C)=NS(=O)(=O)c1ccc(C)cc1
T/C endpoint: median tumor weight (est.), dose: 25.0 mg/kg/injection, schedule: Q07DX005 (ip), vehicle: Klucel (hydroxypropylcellulose) (HPC), evaluated on day 30
  T/C: 141 % of control
T/C endpoint: median tumor weight (est.), dose: 50.0 mg/kg/injection, schedule: Q07DX005 (ip), vehicle: Klucel (hydroxypropylcellulose) (HPC)
  survivor count: 2 of 10 on day 30
T/C endpoint: median tumor weight (est.), dose: 100.0 mg/kg/injection, schedule: Q07DX005 (ip), vehicle: Klucel (hydroxypropylcellulose) (HPC)
  survivor count: 0 of 10 on day 30

## c1cc(OCC2CO2)ccc1OCC1CO1 (configuration not stated)
T/C endpoint: median tumor weight change, dose: 500.0 mg/kg/injection, schedule: Q01DX001 (ip), vehicle: Klucel (hydroxypropylcellulose) (HPC)
  survivor count: 3 of 10 on day 29
T/C endpoint: median tumor weight change, dose: 1000.0 mg/kg/injection, schedule: Q01DX001 (ip), vehicle: Klucel (hydroxypropylcellulose) (HPC)
  survivor count: 0 of 10 on day 29
T/C endpoint: median tumor weight change, dose: 2000.0 mg/kg/injection, schedule: Q01DX001 (ip), vehicle: Klucel (hydroxypropylcellulose) (HPC)
  survivor count: 0 of 10 on day 29

## CCN(CC)CCOC(=O)Cc1cccc2c(=O)cc(-c3ccccc3)oc12
T/C endpoint: median tumor weight (est.), dose: 12.5 mg/kg/injection, schedule: Q07DX005 (ip), vehicle: saline, evaluated on day 30
  T/C: 145 and 147 % of control
T/C endpoint: median tumor weight (est.), dose: 200.0 mg/kg/injection, schedule: Q07DX005 (ip), vehicle: saline
  survivor count: 2 of 10 on day 30
T/C endpoint: median tumor weight (est.), dose: 400.0 mg/kg/injection, schedule: Q07DX005 (ip), vehicle: saline
  survivor count: 0 of 10 on day 30

## COc1cccc2c1C(=O)c1c(O)c3c(c(O)c1C2=O)C[C@@](O)(C(=O)CO)C[C@@H]3OC1CC(N(C)C)C(O)C(C)O1 (some centres not stated)
T/C endpoint: median tumor weight (est.), dose: 1.78 mg/kg/injection, schedule: Q07DX005 (ip), vehicle: water, evaluated on day 30
  T/C: 145 % of control

## C=C(OP(=O)(OC)OC)Sc1ccccc1C
T/C endpoint: median tumor weight change, dose: 3.0 mg/kg/injection, schedule: Q01DX001 (ip), vehicle: Klucel (hydroxypropylcellulose) (HPC)
  survivor count: 1 of 10 on day 32
T/C endpoint: median tumor weight change, dose: 6.0 mg/kg/injection, schedule: Q01DX001 (ip), vehicle: Klucel (hydroxypropylcellulose) (HPC)
  survivor count: 0 of 10 on day 32

## Cn1cnc([N+](=O)[O-])c1SCC(=O)O
T/C endpoint: median tumor weight (est.), dose: 50.0 mg/kg/injection, schedule: Q07DX005 (ip), vehicle: Klucel (hydroxypropylcellulose) (HPC), evaluated on day 30
  T/C: 139 % of control
